In PMC7819943, “Rice protein-binding microarrays: a tool to detect cis-acting elements near promoter regions in rice” one finds binding signal data, which are given here for 42 sequences.

By UniProt entry, the sequences of proteins in these tests, tags left out.
UniProt Q0JBA9, entry or part of it: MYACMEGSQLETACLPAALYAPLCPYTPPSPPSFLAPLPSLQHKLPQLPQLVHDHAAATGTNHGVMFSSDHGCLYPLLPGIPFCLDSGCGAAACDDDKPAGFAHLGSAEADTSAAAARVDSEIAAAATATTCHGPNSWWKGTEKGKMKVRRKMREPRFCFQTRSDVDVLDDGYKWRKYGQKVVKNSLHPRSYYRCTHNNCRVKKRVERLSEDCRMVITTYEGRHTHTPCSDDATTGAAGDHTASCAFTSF

The list shows a part of the results.

This assay deals with OsWRKY34 (Oryza sativa, UniProt Q0JBA9 1-250). Put plainly: protein-binding microarray (RPBM); PBS, 2% BSA, 51.3 ng/ul salmon testes DNA, 50 uM zinc acetate, 200 nM TF, 25 C, 1 h; high values mean tight binding. The note with it: protein: recombinant; tags: N-terminal polyhistidine and DsRed monomer fusion (pET32a); label: CyDye5-dUTP incorporated in the synthesized complementary strand; 3' TTTTT single-stranded linker to array surface; dsDNA, one strand shown. The method in brief:
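Per-feature fluorescence intensity (arbitrary units), read on an Axon 4000B scanner, is the binding signal. Transcription factors carrying an N-terminal polyhistidine tag and DsRed fusion were expressed in E. coli BL21-CodonPlus and purified on Ni–NTA. A custom Agilent array, made double-stranded by primer extension with Cy5-dUTP and blocked with 2% BSA, was incubated with 200 nM protein in PBS, 2% BSA, salmon testes DNA and 50 µM zinc acetate at 25 °C for 1 h and then washed.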
Take “ACACGGCCACCCGCATCCGCACCACCCGCAAGCCGCGACGCGGAGTCACCTAGTGCAG”: the binding signal is 9450 fluorescence intensity (a.u.).
Regarding “TCCAACGGTTACTGTCGCTTTAATATTCGTGCGTGGGGTTCGGAGTCACCTAGTGCAG”, the binding signal is 8820 fluorescence intensity (a.u.).
For the sequence “TGGAGGCCGTGTATAGTTTGACCATTTCTTATATTGTAGACGGAGTCACCTAGTGCAG”, the binding signal was 8510 fluorescence intensity (a.u.).
Consider “ATTAGTCACACATAACTATTGATGTTTTATTATCTAATATCGGAGTCACCTAGTGCAG”, for which the binding signal is 8100 fluorescence intensity (a.u.).
For “TTCCCGAATTCCCAGACCAAATCTCCTCGCTTTTTGCTTCCGGAGTCACCTAGTGCAG”, the binding signal was 10500 fluorescence intensity (a.u.).
The figure for “CTCTAGAAAGTTCTAGATCTTCCGTGCGTGGTGGGCGGGTCGGAGTCACCTAGTGCAG” is 11100 fluorescence intensity (a.u.); for “GGACCGGTGATGGATTTTACTCTTCTAAAATCATTGCTTACGGAGTCACCTAGTGCAG” it is 8220 fluorescence intensity (a.u.).
With “CAATATTTATCTACCGTTCCTTGCTCGCCTGCTTTGCTTTCGGAGTCACCTAGTGCAG”, the binding signal is 8550 fluorescence intensity (a.u.).
Regarding “CTCCTCTCCTTTAATTCGGCCCCGCGCCGCCCGCTTCACCCGGAGTCACCTAGTGCAG”, the binding signal is 8150 fluorescence intensity (a.u.).
“CCTAATTTATTGTTGTACATGTTGCTAATATTTTTTTTATCGGAGTCACCTAGTGCAG”: the binding signal is 11300 fluorescence intensity (a.u.).
Turning to “CCTCTAGCTCTTGCATCGTGTCGTTTCTTTAGCTGCGTGTCGGAGTCACCTAGTGCAG”, the binding signal is 12100 fluorescence intensity (a.u.).
Turning to “TCGCGCTCGGCTTCGCGCCCTTCGTTCTCCGCCTCCTTTGCGGAGTCACCTAGTGCAG”, the binding signal is 9180 fluorescence intensity (a.u.).
For “GAAAATTTTCCAATTCACTGTTGCAATATAACTGTAATAACGGAGTCACCTAGTGCAG”, the binding signal was 8050 fluorescence intensity (a.u.).
The figure for “CAACTCACTTATTTCTATTGTGCGCGCATGCTTTTTAAATCGGAGTCACCTAGTGCAG” is 8300 fluorescence intensity (a.u.).
For the sequence “TGTCGCCATCGTATCACCGTCGCGTCGCCATCCCGTCGCCCGGAGTCACCTAGTGCAG”, the binding signal was 8070 fluorescence intensity (a.u.).
For “TGCCGTTGCTTACACGCGCACCAATTGACACCTACAGTAACGGAGTCACCTAGTGCAG”, the binding signal was 11000 fluorescence intensity (a.u.).
With “TGGTCGAGTGCATTTTTTTATTTCTTGTCATCGACAAGTACGGAGTCACCTAGTGCAG”, the binding signal was 10300 fluorescence intensity (a.u.).
For “AAATTGAGGTGGCCTGTCTGTGCATCTGTGGAACATCATTCGGAGTCACCTAGTGCAG”, the binding signal is 9220 fluorescence intensity (a.u.).
As for “GGTACCTCTAATACTGTCGTCCGGTTGAATTTTTCGTGTACGGAGTCACCTAGTGCAG”, the binding signal was 9950 fluorescence intensity (a.u.).
With “ACCGATACCTATAGTCATTTTCCCACCTTTATACCATAAACGGAGTCACCTAGTGCAG”, the binding signal was 9070 fluorescence intensity (a.u.).
For “ACCTCCGGCCCAAGTACATTCATCCGGCCCAGCTTCACGACGGAGTCACCTAGTGCAG”, the binding signal was 8180 fluorescence intensity (a.u.).
In the case of “TTTTAAATAACCGTGTCTTGCTTTTTGGATGTATTCCAACCGGAGTCACCTAGTGCAG”, the binding signal is 8140 fluorescence intensity (a.u.).
For “CCCCTGCAACCCACTGTGCCTGTGCCCTCGACGCGTCTCCCGGAGTCACCTAGTGCAG”, the binding signal was 10600 fluorescence intensity (a.u.).
Turning to “GGGGTTCGTTTTGTTTCTTGACACACGCTTGAGTCTTATTCGGAGTCACCTAGTGCAG”, the binding signal is 16900 fluorescence intensity (a.u.).
Regarding “CCTTCTCTCTCACCTGCGCACACGTACTGTACATATATACCGGAGTCACCTAGTGCAG”, the binding signal was 9880 fluorescence intensity (a.u.).
As to “CAACTGTGACGATGACCTCTCTGTAGATTCTTTTAATTTTCGGAGTCACCTAGTGCAG”, the binding signal was 8920 fluorescence intensity (a.u.).
In the case of “CGGACGCGTTGCTTTTGTTTCTTCTTGGCAACCATGATCGCGGAGTCACCTAGTGCAG”, the binding signal was 9200 fluorescence intensity (a.u.).
On to “CCGCTGCTAAGATTTTGCCACAATGCCATTCCGCGGAATGCGGAGTCACCTAGTGCAG”, for which the binding signal is 8660 fluorescence intensity (a.u.).
As to “ACTATCCTTGTCATTCCTGGTCTGGATTGAATCCGGGCGTCGGAGTCACCTAGTGCAG”, the binding signal was 8110 fluorescence intensity (a.u.).
In the case of “CGAAGAAATTTACCAGTGCTCCTAATTGCTACTGATCACCCGGAGTCACCTAGTGCAG”, the binding signal was 8110 fluorescence intensity (a.u.).
As for “GTCATCCAAATCATGCCATTTCTCGTTATTGCTTCGTCAACGGAGTCACCTAGTGCAG”, the binding signal was 8630 fluorescence intensity (a.u.).
Consider “TCACTTGCACCTCGCGACCCATTTTAGCCTCTTGCTGTCCCGGAGTCACCTAGTGCAG”, for which the binding signal is 8620 fluorescence intensity (a.u.).
On to “AATATTCTCATGTAAAGGGCAACATCTTCTACTTAATATCCGGAGTCACCTAGTGCAG”, for which the binding signal is 8640 fluorescence intensity (a.u.).
Turning to “CTTGTAGCTGTAATTCCCTATTGTTGTTTTTCGGTACTGTCGGAGTCACCTAGTGCAG”, the binding signal is 13200 fluorescence intensity (a.u.).
On to “CTCTAATCCATTGCCTCGTTTTTCTCTATAGACTATTTCCCGGAGTCACCTAGTGCAG”, for which the binding signal was 9440 fluorescence intensity (a.u.).
“TTGTGTTTGGGCGGGAGAATTTTTGGGGATAGATTTGCGCCGGAGTCACCTAGTGCAG”: the binding signal is 18500 fluorescence intensity (a.u.).
“GTCATGTGAAGTAGCGCCTTGAGTCATCATCGTCAACGCTCGGAGTCACCTAGTGCAG”: the binding signal is 8290 fluorescence intensity (a.u.).
In the case of “ATGTTTGACCATTCATCTTATTCAAAAAATTTACGTAATTCGGAGTCACCTAGTGCAG”, the binding signal was 8410 fluorescence intensity (a.u.).
Turning to “CGCCGACGTCACCGCCACCCGTTGACATTGCTCTATAAAACGGAGTCACCTAGTGCAG”, the binding signal was 8900 fluorescence intensity (a.u.).
Consider “ATTTGAAAATATTGTTTGAAGTTGTCATATTTTCAAATTCCGGAGTCACCTAGTGCAG”, for which the binding signal was 8450 fluorescence intensity (a.u.).
Consider “CATATGTAATGTATACTGTTCGTTTTCTTTTTTCCATGATCGGAGTCACCTAGTGCAG”, for which the binding signal was 9430 fluorescence intensity (a.u.).
As to “AATTGGACTCGTTTGACCGTTTGATTTATGACTCCATATTCGGAGTCACCTAGTGCAG”, the binding signal is 12100 fluorescence intensity (a.u.).
